Where two headings read alike, the source gives them in different places. No constants are given. Whether binding was seen depends on the method and setting. In cells and extracts the contact can be indirect. A yes stands for co-enrichment or nearness to the bait. Other partners may have been found. Tags and fused reporters may be left off the sequences shown.
T1: SF-IL-17RC (murine IL-17RC with C-terminal 2xStrep-3xFlag tag), in ST2 cells (mouse) (UniProt Q8K4C2)
T1 sequence (chain, N-glycosylated (100 kDa and 150 kDa forms)): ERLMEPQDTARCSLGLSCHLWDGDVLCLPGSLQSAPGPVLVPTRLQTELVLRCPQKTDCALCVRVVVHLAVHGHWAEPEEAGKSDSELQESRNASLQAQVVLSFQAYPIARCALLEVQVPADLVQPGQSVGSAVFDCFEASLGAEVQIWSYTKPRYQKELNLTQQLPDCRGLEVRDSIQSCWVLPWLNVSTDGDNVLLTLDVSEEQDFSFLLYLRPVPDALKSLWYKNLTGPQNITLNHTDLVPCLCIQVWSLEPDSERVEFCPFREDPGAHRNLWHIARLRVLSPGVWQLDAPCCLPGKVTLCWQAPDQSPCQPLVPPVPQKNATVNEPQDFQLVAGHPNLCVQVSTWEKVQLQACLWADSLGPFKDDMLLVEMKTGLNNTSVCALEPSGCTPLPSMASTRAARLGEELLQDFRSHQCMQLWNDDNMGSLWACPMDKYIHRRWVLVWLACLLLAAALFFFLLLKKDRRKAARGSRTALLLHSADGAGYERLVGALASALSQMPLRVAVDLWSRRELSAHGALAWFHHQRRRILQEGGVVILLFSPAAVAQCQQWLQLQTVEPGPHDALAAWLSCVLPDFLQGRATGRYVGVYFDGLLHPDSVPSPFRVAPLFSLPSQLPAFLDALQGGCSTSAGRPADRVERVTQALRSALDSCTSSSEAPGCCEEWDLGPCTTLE

Amino acid sequences for entries named in this document (tags omitted).
UniProt Q8CJ61: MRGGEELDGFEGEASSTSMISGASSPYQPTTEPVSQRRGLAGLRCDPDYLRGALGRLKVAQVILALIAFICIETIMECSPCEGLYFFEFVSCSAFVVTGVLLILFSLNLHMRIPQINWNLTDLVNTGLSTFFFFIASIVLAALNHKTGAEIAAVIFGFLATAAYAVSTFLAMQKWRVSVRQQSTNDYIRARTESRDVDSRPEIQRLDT

T2: Strep-Flag-tagged mouse IL-17A (mouse) (UniProt Q62386)
T2 sequence: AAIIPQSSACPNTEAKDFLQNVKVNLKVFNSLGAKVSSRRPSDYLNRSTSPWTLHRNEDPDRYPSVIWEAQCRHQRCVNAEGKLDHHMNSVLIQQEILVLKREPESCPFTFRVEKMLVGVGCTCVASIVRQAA


Experiments:
[1] = target: T1, SF-IL-17RC (murine IL-17RC with C-terminal 2xStrep-3xFlag tag), in ST2 cells (mouse); assay: affinity purification with mass spectrometry; ST2 cells expressing SF-IL-17RC (control SF-GFP), 1% DDM lysate; tandem purification (anti-FLAG M2 agarose, Strep-Tactin Sepharose); iBAQ quantification, three experiments
[2] = target: T2, Strep-Flag-tagged mouse IL-17A (mouse); assay: affinity purification with mass spectrometry; ST2 cells stimulated with SF-IL-17A (500 ng/ml, 15 min), lysed in 1% DDM; tandem purification of SF-IL-17A (anti-FLAG M2 agarose, 3xFlag peptide elution, Strep-Tactin Sepharose); iBAQ quantification, 13 experiments; control: SF-IL-17A added after lysis; only the target purified
[3] = target: T2, Strep-Flag-tagged mouse IL-17A (mouse); assay: as above; remark: listed apart in the source

Row | binding [1] | binding [2] | binding [3] | Molecule
1 | binds | binds | – | CMTM4 (endogenous, mouse ST2 cells) (from UniProt Q8CJ61 1-208)
2 | – | – | binds | IL-17RC (endogenous, mouse ST2 cells) (receptor, UniProt Q8K4C2 22-698, glycosylated (forms of approximately 100 kDa and 150 kDa)) ERLMEPQDTARCSLGLSCHLWDGDVLCLPGSLQSAPGPVLVPTRLQTELVLRCPQKTDCALCVRVVVHLAVHGHWAEPEEAGKSDSELQESRNASLQAQVVLSFQAYPIARCALLEVQVPADLVQPGQSVGSAVFDCFEASLGAEVQIWSYTKPRYQKELNLTQQLPDCRGLEVRDSIQSCWVLPWLNVSTDGDNVLLTLDVSEEQDFSFLLYLRPVPDALKSLWYKNLTGPQNITLNHTDLVPCLCIQVWSLEPDSERVEFCPFREDPGAHRNLWHIARLRVLSPGVWQLDAPCCLPGKVTLCWQAPDQSPCQPLVPPVPQKNATVNEPQDFQLVAGHPNLCVQVSTWEKVQLQACLWADSLGPFKDDMLLVEMKTGLNNTSVCALEPSGCTPLPSMASTRAARLGEELLQDFRSHQCMQLWNDDNMGSLWACPMDKYIHRRWVLVWLACLLLAAALFFFLLLKKDRRKAARGSRTALLLHSADGAGYERLVGALASALSQMPLRVAVDLWSRRELSAHGALAWFHHQRRRILQEGGVVILLFSPAAVAQCQQWLQLQTVEPGPHDALAAWLSCVLPDFLQGRATGRYVGVYFDGLLHPDSVPSPFRVAPLFSLPSQLPAFLDALQGGCSTSAGRPADRVERVTQALRSALDSCTSSSEAPGCCEEWDLGPCTTLE
